The other results are listed elsewhere or left out.
How the values were obtained:
Assay in all cases: log2 fold change, soluble protein after heating vs DMSO (PISA); higher = thermal stabilisation; K562 cells, 10 uM, 30 min; active = over 0.2 and 3.5 SD of the protein, either way, in both replicates (recomputed)
bafetinib = compound: Cc1ccc(NC(=O)c2ccc(CN3CC[C@H](N(C)C)C3)c(C(F)(F)F)c2)cc1Nc1nccc(-c2cncnc2)n1 [bafetinib]
In short: (§1)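 For each measurement, 10 μM compound was applied for 30 min to K562 cells at 2×10^6 cells/mL. Aliquots were heated for 3 min across 48°C-58°C, pooled, and extracted in PBS with 0.5% NP-40 at 4°C; the supernatant after 21,000xg for 90 min was soluble protein. This was quantified by TMTpro 16plex LC-MS/MS with channel sums equalised, and thermal stability was reported relative to control samples from duplicates, on a log2 fold-change scale.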

Sequences of proteins named here, by UniProt entry; tags and fusion partners are left off. A change or cut given only in a name is not applied to a line headed by its entry.
UniProt Q9H000: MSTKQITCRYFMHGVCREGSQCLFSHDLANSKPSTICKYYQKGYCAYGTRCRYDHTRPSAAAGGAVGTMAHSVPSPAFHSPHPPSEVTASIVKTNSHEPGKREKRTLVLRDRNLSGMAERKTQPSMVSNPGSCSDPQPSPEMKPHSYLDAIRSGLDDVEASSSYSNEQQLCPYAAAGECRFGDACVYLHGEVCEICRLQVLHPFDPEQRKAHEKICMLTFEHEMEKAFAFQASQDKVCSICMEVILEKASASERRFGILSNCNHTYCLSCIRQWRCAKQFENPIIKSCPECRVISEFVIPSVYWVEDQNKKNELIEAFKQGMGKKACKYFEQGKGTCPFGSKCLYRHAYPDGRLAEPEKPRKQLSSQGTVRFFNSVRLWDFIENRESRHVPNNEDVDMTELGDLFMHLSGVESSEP
UniProt Q9NXC5: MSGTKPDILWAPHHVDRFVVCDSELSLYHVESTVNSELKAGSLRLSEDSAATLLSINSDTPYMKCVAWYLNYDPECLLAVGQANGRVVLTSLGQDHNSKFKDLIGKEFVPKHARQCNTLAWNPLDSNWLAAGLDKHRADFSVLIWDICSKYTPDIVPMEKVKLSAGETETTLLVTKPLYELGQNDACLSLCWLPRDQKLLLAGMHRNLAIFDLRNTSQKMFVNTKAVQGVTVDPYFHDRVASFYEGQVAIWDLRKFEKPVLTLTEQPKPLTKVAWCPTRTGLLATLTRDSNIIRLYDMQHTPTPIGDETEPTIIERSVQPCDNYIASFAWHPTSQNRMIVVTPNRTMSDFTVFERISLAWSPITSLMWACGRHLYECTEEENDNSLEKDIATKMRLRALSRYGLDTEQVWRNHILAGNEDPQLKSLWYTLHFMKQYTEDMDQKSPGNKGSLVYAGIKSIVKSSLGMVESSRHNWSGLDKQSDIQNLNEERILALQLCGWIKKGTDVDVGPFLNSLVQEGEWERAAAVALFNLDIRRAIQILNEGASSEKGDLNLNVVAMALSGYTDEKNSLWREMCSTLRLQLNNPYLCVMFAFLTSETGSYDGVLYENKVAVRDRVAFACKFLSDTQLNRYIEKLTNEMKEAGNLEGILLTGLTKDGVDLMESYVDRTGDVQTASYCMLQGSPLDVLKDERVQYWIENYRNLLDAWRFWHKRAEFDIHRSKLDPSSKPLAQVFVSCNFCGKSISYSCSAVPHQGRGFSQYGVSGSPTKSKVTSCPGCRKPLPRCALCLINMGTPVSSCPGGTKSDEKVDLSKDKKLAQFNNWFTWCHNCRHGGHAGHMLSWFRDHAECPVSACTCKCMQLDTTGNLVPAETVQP
UniProt Q8NHP6: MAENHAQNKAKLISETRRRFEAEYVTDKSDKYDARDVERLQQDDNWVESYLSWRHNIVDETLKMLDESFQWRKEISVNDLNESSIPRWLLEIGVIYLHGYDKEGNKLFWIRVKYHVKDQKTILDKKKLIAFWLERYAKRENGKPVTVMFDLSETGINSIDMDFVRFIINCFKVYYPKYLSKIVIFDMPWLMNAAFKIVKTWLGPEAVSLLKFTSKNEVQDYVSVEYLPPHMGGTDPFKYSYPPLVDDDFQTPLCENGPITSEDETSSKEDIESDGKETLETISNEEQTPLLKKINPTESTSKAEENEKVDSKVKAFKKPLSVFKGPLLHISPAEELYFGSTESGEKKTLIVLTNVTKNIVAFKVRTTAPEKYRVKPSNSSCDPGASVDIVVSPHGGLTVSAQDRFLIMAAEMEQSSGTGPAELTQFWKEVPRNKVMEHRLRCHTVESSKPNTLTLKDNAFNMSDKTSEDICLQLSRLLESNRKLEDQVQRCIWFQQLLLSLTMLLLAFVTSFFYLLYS
UniProt O00566: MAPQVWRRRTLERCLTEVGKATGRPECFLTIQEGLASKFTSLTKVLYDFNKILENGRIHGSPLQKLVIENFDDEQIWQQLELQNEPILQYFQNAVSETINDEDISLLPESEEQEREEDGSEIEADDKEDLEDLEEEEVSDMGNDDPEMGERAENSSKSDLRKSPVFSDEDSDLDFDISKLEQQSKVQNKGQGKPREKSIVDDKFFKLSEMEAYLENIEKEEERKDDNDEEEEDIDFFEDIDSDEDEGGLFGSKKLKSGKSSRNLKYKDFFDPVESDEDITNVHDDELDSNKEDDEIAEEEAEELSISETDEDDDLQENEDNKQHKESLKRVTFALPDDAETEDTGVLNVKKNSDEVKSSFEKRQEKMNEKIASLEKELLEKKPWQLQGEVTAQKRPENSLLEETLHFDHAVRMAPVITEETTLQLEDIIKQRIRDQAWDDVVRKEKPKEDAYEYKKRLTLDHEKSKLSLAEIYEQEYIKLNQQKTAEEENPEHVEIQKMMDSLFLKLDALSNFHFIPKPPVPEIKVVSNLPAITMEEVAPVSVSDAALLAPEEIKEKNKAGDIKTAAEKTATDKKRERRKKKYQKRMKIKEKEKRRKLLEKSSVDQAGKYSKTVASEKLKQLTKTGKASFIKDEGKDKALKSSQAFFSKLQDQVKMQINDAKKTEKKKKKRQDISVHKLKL
UniProt Q9Y3A3: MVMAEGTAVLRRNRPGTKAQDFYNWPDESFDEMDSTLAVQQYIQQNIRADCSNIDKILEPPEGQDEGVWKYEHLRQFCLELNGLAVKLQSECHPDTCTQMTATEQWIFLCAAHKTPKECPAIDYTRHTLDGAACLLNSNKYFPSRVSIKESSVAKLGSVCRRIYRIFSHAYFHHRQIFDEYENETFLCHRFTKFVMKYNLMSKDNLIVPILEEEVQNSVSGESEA
UniProt Q14149: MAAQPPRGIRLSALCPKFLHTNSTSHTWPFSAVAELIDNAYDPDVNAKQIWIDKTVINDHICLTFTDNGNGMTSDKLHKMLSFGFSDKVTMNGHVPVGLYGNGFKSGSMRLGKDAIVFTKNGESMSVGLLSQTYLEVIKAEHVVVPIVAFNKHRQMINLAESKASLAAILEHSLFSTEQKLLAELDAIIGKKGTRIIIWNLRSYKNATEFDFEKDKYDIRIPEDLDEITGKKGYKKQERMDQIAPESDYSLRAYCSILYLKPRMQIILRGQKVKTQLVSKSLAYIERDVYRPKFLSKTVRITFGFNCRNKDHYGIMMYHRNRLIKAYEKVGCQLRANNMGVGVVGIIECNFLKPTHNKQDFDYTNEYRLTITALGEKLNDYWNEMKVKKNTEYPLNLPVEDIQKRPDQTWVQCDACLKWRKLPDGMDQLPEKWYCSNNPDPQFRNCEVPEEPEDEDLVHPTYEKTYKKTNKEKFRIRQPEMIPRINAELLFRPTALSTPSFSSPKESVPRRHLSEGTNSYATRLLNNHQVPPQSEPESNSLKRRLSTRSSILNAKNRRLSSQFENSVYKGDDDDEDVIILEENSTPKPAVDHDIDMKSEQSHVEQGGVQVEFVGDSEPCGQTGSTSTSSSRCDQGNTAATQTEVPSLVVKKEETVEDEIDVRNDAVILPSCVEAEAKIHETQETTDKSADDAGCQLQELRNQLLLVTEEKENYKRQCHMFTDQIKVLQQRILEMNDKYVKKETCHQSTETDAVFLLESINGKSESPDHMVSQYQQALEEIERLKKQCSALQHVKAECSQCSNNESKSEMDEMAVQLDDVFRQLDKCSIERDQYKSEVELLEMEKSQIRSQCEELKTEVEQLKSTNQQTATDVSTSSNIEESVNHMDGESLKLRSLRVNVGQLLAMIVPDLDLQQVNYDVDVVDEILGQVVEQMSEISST
UniProt O75352: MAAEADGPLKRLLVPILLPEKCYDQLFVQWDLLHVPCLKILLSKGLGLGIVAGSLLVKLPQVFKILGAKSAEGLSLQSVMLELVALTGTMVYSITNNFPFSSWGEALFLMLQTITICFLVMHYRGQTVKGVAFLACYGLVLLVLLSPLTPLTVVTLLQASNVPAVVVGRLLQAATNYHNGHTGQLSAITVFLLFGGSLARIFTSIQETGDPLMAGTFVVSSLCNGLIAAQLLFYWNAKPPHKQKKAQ
UniProt P22033: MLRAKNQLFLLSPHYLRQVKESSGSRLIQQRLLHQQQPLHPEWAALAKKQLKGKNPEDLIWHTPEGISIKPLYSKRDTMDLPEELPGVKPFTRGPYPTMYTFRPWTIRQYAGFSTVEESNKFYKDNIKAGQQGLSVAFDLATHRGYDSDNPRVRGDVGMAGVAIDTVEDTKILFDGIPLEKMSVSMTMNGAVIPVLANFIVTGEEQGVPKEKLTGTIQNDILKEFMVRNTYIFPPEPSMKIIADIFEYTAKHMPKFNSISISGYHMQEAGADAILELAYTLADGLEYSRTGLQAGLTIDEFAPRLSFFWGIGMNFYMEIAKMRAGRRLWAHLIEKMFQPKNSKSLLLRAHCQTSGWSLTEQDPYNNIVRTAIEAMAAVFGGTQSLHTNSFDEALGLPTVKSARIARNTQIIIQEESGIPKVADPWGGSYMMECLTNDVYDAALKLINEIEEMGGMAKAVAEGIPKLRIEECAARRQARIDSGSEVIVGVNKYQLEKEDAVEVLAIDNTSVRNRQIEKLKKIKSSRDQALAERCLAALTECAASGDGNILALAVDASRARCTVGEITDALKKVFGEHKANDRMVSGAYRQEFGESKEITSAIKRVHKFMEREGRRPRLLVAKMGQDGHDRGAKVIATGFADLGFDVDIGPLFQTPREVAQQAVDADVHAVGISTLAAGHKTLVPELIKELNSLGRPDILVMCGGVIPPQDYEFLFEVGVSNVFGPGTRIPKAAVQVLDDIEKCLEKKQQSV
UniProt Q8N4V1: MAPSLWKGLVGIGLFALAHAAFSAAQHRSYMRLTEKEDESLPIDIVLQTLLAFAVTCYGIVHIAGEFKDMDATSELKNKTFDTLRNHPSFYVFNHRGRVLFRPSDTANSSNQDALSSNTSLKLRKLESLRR
UniProt Q9UBU8, whole entry, looked up: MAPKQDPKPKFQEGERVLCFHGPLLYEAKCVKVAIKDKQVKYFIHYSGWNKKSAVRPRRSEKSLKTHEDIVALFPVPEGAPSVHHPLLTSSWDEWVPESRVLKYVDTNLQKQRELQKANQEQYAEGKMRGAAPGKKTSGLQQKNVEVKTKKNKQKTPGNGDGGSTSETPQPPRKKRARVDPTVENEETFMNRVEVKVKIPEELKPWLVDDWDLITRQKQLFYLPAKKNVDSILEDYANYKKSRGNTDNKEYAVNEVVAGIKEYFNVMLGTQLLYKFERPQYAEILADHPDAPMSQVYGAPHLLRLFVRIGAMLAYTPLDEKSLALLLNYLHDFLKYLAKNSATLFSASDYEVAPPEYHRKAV

[1] = compound: Cc1cccc(CC(=O)N2CCc3c2ccc(-c2cn(C)c4ncnc(N)c24)c3F)n1
In short: as §1

nilotinib = compound: Cc1cn(-c2cc(NC(=O)c3ccc(C)c(Nc4nccc(-c5cccnc5)n4)c3)cc(C(F)(F)F)c2)cn1 [nilotinib]
In short: as §1

[2] = compound: Cc1nc(Nc2n[nH]c3c2CN(C(=O)N[C@H](CN(C)C)c2ccccc2)C3(C)C)c2sccc2n1
In short: as §1

dasatinib = compound: Cc1nc(Nc2ncc(C(=O)Nc3c(C)cccc3Cl)s2)cc(N2CCN(CCO)CC2)n1 [dasatinib]
In short: as §1

[3] = compound: Cc1ncc(-c2ccnc(Nc3ccc(S(C)(=O)=O)cc3)n2)n1C(C)C
In short: as §1

[4] = compound: Cn1cc(-c2ccc3c(c2)CCN3C(=O)Cc2cccc(C(F)(F)F)c2)c2c(N)ncnc21
In short: as §1

[5] = compound: Cn1cc(-c2ccc3nnc(C(F)(F)c4ccc5ncccc5c4)n3n2)cn1
In short: as §1

tipifarnib = compound: Cn1cncc1[C@@](N)(c1ccc(Cl)cc1)c1ccc2c(c1)c(-c1cccc(Cl)c1)cc(=O)n2C [tipifarnib]
In short: as §1

mubritinib = compound: FC(F)(F)c1ccc(/C=C/c2nc(COc3ccc(CCCCn4ccnn4)cc3)co2)cc1 [mubritinib]
In short: as §1

[6] = compound: NC(=O)Nc1cc(-c2cccc(F)c2)sc1C(=O)N[C@H]1CCCNC1
In short: as §1

[7] = compound: NC(=O)c1cnc(N[C@@H]2CCCC[C@@H]2N)nc1Nc1cccc(-n2nccn2)c1
In short: as §1

[8] = compound: NC1(c2ccc(-c3nc4ccn5c(=O)[nH]nc5c4cc3-c3ccccc3)cc2)CCC1
In short: as §1

[9] = compound: NCC(=O)Nc1ccc(-n2nc(C(F)(F)F)cc2-c2ccc3c(ccc4ccccc43)c2)cc1
In short: as §1

entinostat = compound: Nc1ccccc1NC(=O)c1ccc(CNC(=O)OCc2cccnc2)cc1 [entinostat]
In short: as §1

vorinostat = compound: O=C(CCCCCCC(=O)Nc1ccccc1)NO [vorinostat]
In short: as §1

citarinostat = compound: O=C(CCCCCCNC(=O)c1cnc(N(c2ccccc2)c2ccccc2Cl)nc1)NO [citarinostat]
In short: as §1

silmitasertib = compound: O=C(O)c1ccc2c(c1)nc(Nc1cccc(Cl)c1)c1ccncc12 [silmitasertib]
In short: as §1

[10] = compound: O=C1NC(=O)C(c2cnc3ccccn23)=C1c1cn2c3c(cc(F)cc13)CN(C(=O)N1CCCCC1)CC2
In short: as §1

[11] = compound: c1cc(OCCN2CCCCC2)cc(-c2n[nH]c3ccc(-c4nnc[nH]4)cc23)c1
In short: as §1

Measured: log2 fold change

MRPL1 (UniProt Q9BYD6)
inactive: bafetinib 0.159 | [1] 0.092 | nilotinib -0.084 | [2] 0.055 | dasatinib -0.017 | [3] -0.004 | [4] -0.122 | [5] -0.045 | tipifarnib 0.095 | mubritinib -0.08 | [6] -0.052 | [7] 0.037 | [8] -0.108 | [9] 0.158 | entinostat 0.061 | vorinostat 0.017 | citarinostat 0.05 | silmitasertib 0.057 | [10] 0.044 | [11] -0.058

MRPL49 (UniProt Q13405)
inactive: bafetinib 0.052 | [1] 0.03 | nilotinib -0.042 | [2] 0.083 | dasatinib 0.118 | [3] -0.046 | [4] -0.106 | [5] 0.149 | tipifarnib 0.02 | mubritinib 0.034 | [6] -0.05 | [7] 0.022 | [8] 0.033 | [9] 0.037 | entinostat 0.042 | vorinostat -0.06 | citarinostat -0.053 | silmitasertib 0.036 | [10] -0.11 | [11] -0.066

MRPL38 (UniProt Q96DV4)
inactive: bafetinib 0.168 | [1] 0.026 | nilotinib -0.047 | [2] 0.161 | dasatinib 0.011 | [3] -0.01 | [4] -0.16 | [5] -0.056 | tipifarnib 0.148 | mubritinib 0.055 | [6] 0.002 | [7] 0.043 | [8] 0.004 | [9] 0.136 | entinostat -0.027 | vorinostat 0.068 | citarinostat 0.058 | silmitasertib 0.027 | [10] 0.063 | [11] -0.05

Retrieved one by one from the entries so far (two):
MRPL49 (UniProt Q13405)
inactive: bafetinib 0.052 | [1] 0.03 | nilotinib -0.042 | [2] 0.083 | dasatinib 0.118 | [3] -0.046 | [4] -0.106 | [5] 0.149 | tipifarnib 0.02 | mubritinib 0.034 | [6] -0.05 | [7] 0.022 | [8] 0.033 | [9] 0.037 | entinostat 0.042 | vorinostat -0.06 | citarinostat -0.053 | silmitasertib 0.036 | [10] -0.11 | [11] -0.066

MRPL1 (UniProt Q9BYD6)
inactive: bafetinib 0.159 | [1] 0.092 | nilotinib -0.084 | [2] 0.055 | dasatinib -0.017 | [3] -0.004 | [4] -0.122 | [5] -0.045 | tipifarnib 0.095 | mubritinib -0.08 | [6] -0.052 | [7] 0.037 | [8] -0.108 | [9] 0.158 | entinostat 0.061 | vorinostat 0.017 | citarinostat 0.05 | silmitasertib 0.057 | [10] 0.044 | [11] -0.058

Remaining list, next part.

MKRN2 (UniProt Q9H000)
inactive: bafetinib 0.073 | [1] -0.194 | nilotinib -0.048 | [2] -0.062 | dasatinib -0.088 | [3] 0.066 | [4] -0.284 | [5] -0.099 | tipifarnib -0.01 | mubritinib -0.142 | [6] -0.007 | [7] 0 | [8] 0.094 | [9] -0.044 | entinostat 0.104 | vorinostat 0.228 | citarinostat 0.042 | silmitasertib 0.047 | [10] 0.052 | [11] -0.129

MIOS (UniProt Q9NXC5)
inactive: bafetinib 0.067 | [1] -0.04 | nilotinib 0.015 | [2] 0.006 | dasatinib 0.061 | [3] -0.01 | [4] -0.073 | [5] -0.089 | tipifarnib 0.007 | mubritinib 0.026 | [6] 0.053 | [7] 0.047 | [8] 0.042 | [9] -0.033 | entinostat -0.047 | vorinostat 0.048 | citarinostat -0.028 | silmitasertib 0.022 | [10] -0.011 | [11] -0.079

MOSPD2 (UniProt Q8NHP6)
inactive: bafetinib -0.087 | [1] -0.035 | nilotinib 0.024 | [2] 0.029 | dasatinib 0.014 | [3] -0.061 | [4] -0.012 | [5] 0.006 | tipifarnib 0.054 | mubritinib 0.125 | [6] -0.02 | [7] 0 | [8] -0.17 | [9] -0.06 | entinostat 0.003 | vorinostat 0.036 | citarinostat 0.011 | silmitasertib 0.036 | [10] -0.003 | [11] 0.017

MPHOSPH10 (UniProt O00566)
inactive: bafetinib 0.137 | [1] -0.045 | nilotinib -0.055 | [2] -0.028 | dasatinib 0.138 | [3] -0.199 | [4] -0.259 | [5] -0.001 | tipifarnib 0.246 | mubritinib -0.069 | [6] 0.089 | [7] 0.016 | [8] 0.186 | [9] 0.064 | entinostat 0.017 | vorinostat 0.045 | citarinostat 0.062 | silmitasertib 0.112 | [10] 0.067 | [11] -0.169

MOB4 (UniProt Q9Y3A3)
inactive: bafetinib -0.027 | [1] -0.007 | nilotinib 0.048 | [2] 0.035 | dasatinib -0.011 | [3] -0.022 | [4] 0.023 | [5] 0.019 | tipifarnib -0.012 | mubritinib 0.047 | [6] -0.001 | [7] 0.023 | [8] -0.036 | [9] 0.005 | entinostat -0.019 | vorinostat 0.005 | citarinostat 0.071 | silmitasertib 0.004 | [10] -0.026 | [11] -0.009

MORC3 (UniProt Q14149)
inactive: bafetinib -0.014 | [1] 0.009 | nilotinib -0.173 | [2] 0.09 | dasatinib -0.154 | [3] 0.105 | [4] 0.011 | [5] -0.026 | tipifarnib 0.006 | mubritinib -0.212 | [6] 0.024 | [7] -0.047 | [8] -0.241 | [9] -0.22 | entinostat -0.021 | vorinostat -0.159 | citarinostat -0.118 | silmitasertib 0.201 | [10] -0.066 | [11] 0.089

MRPL34 (UniProt Q9BQ48)
inactive: bafetinib 0.176 | [1] 0.035 | nilotinib -0.083 | [2] 0.248 | dasatinib 0.065 | [3] -0.064 | [4] -0.142 | [5] -0.048 | tipifarnib 0.058 | mubritinib 0.032 | [6] 0.02 | [7] 0.018 | [8] 0.045 | [9] 0.095 | entinostat -0.041 | vorinostat 0.035 | citarinostat 0.004 | silmitasertib 0.053 | [10] 0.09 | [11] -0.175

MRPL50 (UniProt Q8N5N7)
inactive: bafetinib -0.079 | [1] -0.035 | nilotinib 0.008 | [2] 0.114 | dasatinib 0.183 | [3] -0.064 | [4] 0.022 | [5] 0.117 | tipifarnib -0.163 | mubritinib -0.039 | [6] 0.024 | [7] 0.154 | [8] 0.035 | [9] 0.074 | entinostat 0.059 | vorinostat -0.102 | citarinostat 0.051 | silmitasertib 0.006 | [10] -0.078 | [11] -0.078

MPDU1 (UniProt O75352)
inactive: bafetinib -0.022 | [1] -0.03 | nilotinib 0.039 | [2] 0.031 | dasatinib -0.199 | [3] -0.005 | [4] 0.075 | [5] 0.071 | tipifarnib 0.15 | mubritinib 0.09 | [6] 0.063 | [7] 0.061 | [8] -0.087 | [9] 0.025 | entinostat 0.067 | vorinostat -0.075 | citarinostat 0.036 | silmitasertib 0.016 | [10] 0.169 | [11] -0.013

MIEF1 (UniProt L0R8F8)
inactive: bafetinib -0.077 | [1] -0.001 | nilotinib -0.1 | [2] 0.067 | dasatinib 0.001 | [3] -0.093 | [4] 0.022 | [5] -0.053 | tipifarnib -0.03 | mubritinib -0.039 | [6] 0.085 | [7] 0.094 | [8] 0.047 | [9] 0.002 | entinostat 0.007 | vorinostat -0.012 | citarinostat 0.039 | silmitasertib -0.021 | [10] -0.063 | [11] -0.056

MMUT (UniProt P22033)
inactive: bafetinib -0.062 | [1] 0.014 | nilotinib -0.007 | [2] -0.022 | dasatinib -0.056 | [3] -0.027 | [4] 0.024 | [5] -0.003 | tipifarnib -0.003 | mubritinib -0.037 | [6] -0.07 | [7] -0.085 | [8] -0.103 | [9] -0.084 | entinostat 0.019 | vorinostat -0.039 | citarinostat 0.016 | silmitasertib 0.034 | [10] -0.113 | [11] -0.007

MMGT1 isoform 2 (UniProt Q8N4V1)
inactive: bafetinib -0.005 | [1] -0.004 | nilotinib -0.001 | [2] 0.012 | dasatinib 0.046 | [3] -0.052 | [4] 0.121 | [5] 0.051 | tipifarnib -0.011 | mubritinib 0.066 | [6] 0 | [7] 0.017 | [8] -0.063 | [9] -0.029 | entinostat 0.056 | vorinostat 0.095 | citarinostat 0.017 | silmitasertib 0.049 | [10] -0.098 | [11] -0.041

MORF4L1 isoform 2 (UniProt Q9UBU8)
inactive: bafetinib 0.021 | [1] 0.021 | nilotinib -0.031 | [2] -0.007 | dasatinib 0.01 | [3] -0.085 | [4] -0.025 | [5] -0.063 | tipifarnib -0.007 | mubritinib 0 | [6] -0.047 | [7] -0.077 | [8] -0.071 | [9] -0.041 | entinostat -0.081 | vorinostat 0.053 | citarinostat -0.208 | silmitasertib 0.016 | [10] -0.117 | [11] -0.037
